According to patent publication US20230372552A1, “CONJUGATE OR ITS SALT COMPRISING A GASTRIN-RELEASING PEPTIDE RECEPTOR ANTAGONIST AND USES THEREOF” (ORANO MED, priority 2020, published 2023):
Part of at least one peptide drawing is inferred or uncertain, most often the ends. At least one structure is not confirmed: it was looked up by name or label, or the drawing left a doubt.

Tested on: subcutaneous PC-3 tumors
Test: ^212Pb-conjugate efficacy study in xenograft-bearing mice
Type: in vivo, athymic nude mice
Settings: 1 cycle versus 3 cycles

CC(C)C[C@H](NC(=O)C[C@H](O)[C@H](CC(C)C)NC(=O)[C@H](Cc1c[nH]cn1)NC(=O)CNC(=O)[C@@H](NC(=O)[C@H](C)NC(=O)[C@H](Cc1c[nH]c2ccccc12)NC(=O)[C@H](CCC(N)=O)NC(=O)[C@@H](Cc1ccccc1)NC(=O)CCNC(=O)CCNC(=O)CN1CCN(CC(N)=O)CCN(CC(N)=O)CCN(CC(N)=O)CC1)C(C)C)C(N)=O [^212Pb-conjugate, metal not drawn]
difference between one and three treatment cycles: no significant difference
